Test results published in article PMC10060224.
These are yes or no findings as the source states them, for the method shown. In cells and extracts the contact can be indirect. Where a sequence is shown, tags or fusion partners need not be part of it.

Molecular target: T1, Flag-tagged SENP6^C1030A (human) (UniProt Q9GZR1)
T1 sequence: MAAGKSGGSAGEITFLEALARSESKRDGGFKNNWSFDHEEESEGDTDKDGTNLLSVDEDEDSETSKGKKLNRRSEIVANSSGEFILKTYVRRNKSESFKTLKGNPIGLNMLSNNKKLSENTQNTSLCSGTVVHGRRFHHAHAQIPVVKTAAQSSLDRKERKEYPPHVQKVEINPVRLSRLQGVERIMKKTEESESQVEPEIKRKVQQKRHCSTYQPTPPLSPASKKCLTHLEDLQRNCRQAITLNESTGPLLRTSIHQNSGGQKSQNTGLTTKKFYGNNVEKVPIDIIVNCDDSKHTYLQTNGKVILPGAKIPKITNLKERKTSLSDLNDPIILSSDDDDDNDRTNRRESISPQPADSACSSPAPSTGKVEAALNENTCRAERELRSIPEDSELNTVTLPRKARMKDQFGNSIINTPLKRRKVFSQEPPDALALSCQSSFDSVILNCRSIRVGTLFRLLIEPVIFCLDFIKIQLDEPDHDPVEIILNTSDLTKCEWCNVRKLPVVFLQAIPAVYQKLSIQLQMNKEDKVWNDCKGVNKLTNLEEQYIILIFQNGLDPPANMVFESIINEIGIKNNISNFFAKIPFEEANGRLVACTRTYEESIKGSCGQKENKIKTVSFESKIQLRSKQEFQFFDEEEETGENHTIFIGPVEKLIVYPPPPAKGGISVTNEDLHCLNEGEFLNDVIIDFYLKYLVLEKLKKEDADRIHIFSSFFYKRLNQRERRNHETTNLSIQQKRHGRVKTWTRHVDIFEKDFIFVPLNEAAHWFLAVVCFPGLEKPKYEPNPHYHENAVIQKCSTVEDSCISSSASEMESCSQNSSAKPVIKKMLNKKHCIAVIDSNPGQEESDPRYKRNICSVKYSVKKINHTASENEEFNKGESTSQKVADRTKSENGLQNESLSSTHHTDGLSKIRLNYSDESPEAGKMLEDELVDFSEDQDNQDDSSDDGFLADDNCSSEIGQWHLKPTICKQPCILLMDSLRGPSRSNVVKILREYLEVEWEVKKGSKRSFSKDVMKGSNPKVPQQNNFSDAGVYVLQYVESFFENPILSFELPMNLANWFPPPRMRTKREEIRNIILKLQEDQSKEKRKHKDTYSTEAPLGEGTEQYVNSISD
Experiment: co-IP; ALT#1 cells transduced with vector control or Flag-SENP6^C1030A; lysis buffer 50 mM Tris pH 7.5, 120 mM NaCl, 1% NP-40, 5 mM EDTA; 500 ug lysate with IgG or anti-Flag M2 overnight at 4 °C, Protein G magnetic beads 2 h, three washes; western blot

B1: KDM2A (protein, UniProt Q9Y2K7 1-1162)
chain: MEPEEERIRYSQRLRGTMRRRYEDDGISDDEIEGKRTFDLEEKLHTNKYNANFVTFMEGKDFNVEYIQRGGLRDPLIFKNSDGLGIKMPDPDFTVNDVKMCVGSRRMVDVMDVNTQKGIEMTMAQWTRYYETPEEEREKLYNVISLEFSHTRLENMVQRPSTVDFIDWVDNMWPRHLKESQTESTNAILEMQYPKVQKYCLMSVRGCYTDFHVDFGGTSVWYHIHQGGKVFWLIPPTAHNLELYENWLLSGKQGDIFLGDRVSDCQRIELKQGYTFVIPSGWIHAVYTPTDTLVFGGNFLHSFNIPMQLKIYNIEDRTRVPNKFRYPFYYEMCWYVLERYVYCITNRSHLTKEFQKESLSMDLELNGLESGNGDEEAVDREPRRLSSRRSVLTSPVANGVNLDYDGLGKTCRSLPSLKKTLAGDSSSDCSRGSHNGQVWDPQCAPRKDRQVHLTHFELEGLRCLVDKLESLPLHKKCVPTGIEDEDALIADVKILLEELANSDPKLALTGVPIVQWPKRDKLKFPTRPKVRVPTIPITKPHTMKPAPRLTPVRPAAASPIVSGARRRRVRCRKCKACVQGECGVCHYCRDMKKFGGPGRMKQSCVLRQCLAPRLPHSVTCSLCGEVDQNEETQDFEKKLMECCICNEIVHPGCLQMDGEGLLNEELPNCWECPKCYQEDSSEKAQKRKMEESDEEAVQAKVLRPLRSCDEPLTPPPHSPTSMLQLIHDPVSPRGMVTRSSPGAGPSDHHSASRDERFKRRQLLRLQATERTMVREKENNPSGKKELSEVEKAKIRGSYLTVTLQRPTKELHGTSIVPKLQAITASSANLRHSPRVLVQHCPARTPQRGDEEGLGGEEEEEEEEEEEDDSAEEGGAARLNGRGSWAQDGDESWMQREVWMSVFRYLSRRELCECMRVCKTWYKWCCDKRLWTKIDLSRCKAIVPQALSGIIKRQPVSLDLSWTNISKKQLTWLVNRLPGLKDLLLAGCSWSAVSALSTSSCPLLRTLDLRWAVGIKDPQIRDLLTPPADKPGQDNRSKLRNMTDFRLAGLDITDATLRLIIRHMPLLSRLDLSHCSHLTDQSSNLLTAVGSSTRYSLTELNMAGCNKLTDQTLIYLRRIANVTLIDLRGCKQITRKACEHFISDLSINSLYCLSDEKLIQKIS
For B1, the binding was “no binding”.
